The record followed here is article PMC8980073.

Sequences of proteins named here, by UniProt entry; tags and fusion partners are left off. Residues count along the entry.
UniProt Q15075, residues 1-209: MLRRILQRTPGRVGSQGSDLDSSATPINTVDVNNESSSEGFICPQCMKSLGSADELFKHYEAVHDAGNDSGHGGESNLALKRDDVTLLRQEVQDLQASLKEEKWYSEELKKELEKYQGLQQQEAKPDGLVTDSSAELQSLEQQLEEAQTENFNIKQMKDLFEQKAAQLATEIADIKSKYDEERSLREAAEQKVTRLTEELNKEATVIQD

The target in the assay is GST-EEA1^1-209 (human) (UniProt Q15075). The assay is described as follows: pull-down; GST-EEA1^1-209 on glutathione sepharose beads incubated with lysates of GFP-Rab5A^REMI/WT cells or the same cells with deletion of pripA or tbcrA; 20 mM Hepes pH 7.2, 100 mM NaCl, 0.3% CHAPS, 5 mM MgCl2, 1 mM DTT, 4 °C, 2 h; anti-GFP blot; only the target purified.

These are yes or no findings as the source states them, for the method shown. In cells and extracts the contact can be indirect. Some results given as binding are weak or reduced against the parent protein; the word gives no strength. Tags and fused reporters may be left off the sequences shown.

B1: GFP-Rab5A^REMI (protein, UniProt Q86JP3 1-201)
chain: MNNNNKIFQFKLVLLGEAAVGKSSLVLRFVRGHFLDYQESTIGAAFLAQTVCLNDTTVKFEIWDTAGQERYHTLAPMYYRGAQAAIVVYDIRSEDSFERAIKWVKELQRQGSPNIVIALAGNKLDLAAKRKVETAEAQQYAEENGLLFMETSAKTSQNVNELFVEIAKKLPKTPTTRPGSGRVAIAPIDNGNTGKKNKCCN
For B1, the binding result is on record as “binds”.
